Source: ChEMBL document CHEMBL4184185, “Dihydrobenzisoxazole-4-one compounds are novel selective inhibitors of aldosterone synthase (CYP11B2) with in vivo activity” (Bioorg Med Chem Lett, 2018)

Assays:
[1] = Inhibition of cynomolgus monkey adrenal mitochondrial CYP11B2 using corticosterone as substrate after 60 mins in presence of NADPH by mass spectrometric analysis
[2] = Inhibition of cynomolgus monkey adrenal mitochondrial CYP11B1 using 11-deoxycortisol as substrate after 90 mins in presence of NADPH by mass spectrometric analysis
[3] = target: T1, Steroid 17-alpha-hydroxylase/17,20 lyase (Homo sapiens, UniProt P05093); experiment: Inhibition of CYP17A1 (unknown origin); assay type: ADME
T1 sequence (P05093 whole entry): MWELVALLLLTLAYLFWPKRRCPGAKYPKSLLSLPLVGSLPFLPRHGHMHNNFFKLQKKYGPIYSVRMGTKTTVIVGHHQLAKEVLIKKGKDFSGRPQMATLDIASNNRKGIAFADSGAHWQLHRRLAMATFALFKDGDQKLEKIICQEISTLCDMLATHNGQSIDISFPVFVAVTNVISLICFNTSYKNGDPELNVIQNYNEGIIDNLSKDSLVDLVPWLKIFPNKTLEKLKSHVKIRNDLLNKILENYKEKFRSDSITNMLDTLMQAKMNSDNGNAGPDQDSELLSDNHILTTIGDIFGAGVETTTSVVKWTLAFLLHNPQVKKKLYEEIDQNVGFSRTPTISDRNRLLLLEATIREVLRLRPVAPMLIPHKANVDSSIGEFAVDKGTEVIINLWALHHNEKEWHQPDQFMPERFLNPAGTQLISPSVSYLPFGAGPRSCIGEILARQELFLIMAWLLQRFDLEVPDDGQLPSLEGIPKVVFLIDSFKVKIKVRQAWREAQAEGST

pIC50 [1]: 8.4
pIC50 [2]: 7.9
IC50 [3]: > 20 µM
SMILES: N#Cc1ccc([C@H]2CCCc3cncn32)cc1 [DEXFADROSTAT]
